PubChem BioAssay AID1259254 – NCATS | 2017

Test: 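Finding genes that stop cells copying their DNA twice in one cycle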 (primary screen)
Cell system: human HCT116 colorectal cancer cells
Reagent: single siRNA against human genes
Duration: 3 days
Detection: 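Nuclei stained with Hoechst and imaged; cell-cycle phase assigned by DNA content; G2 share scaled per plate, non-targeting siRNA 0%, GMNN siRNA 100%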
Direction: G2 robust z-score and G2 cells, % of GMNN control: higher = more G2 cells, more excess DNA replication
Call rule: 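Active siRNAs have a G2 robust z of 5 or more median absolute deviations over the median, which in these data means about 38% or higher of GMNN control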
Shown is an unselected part of about 59,000 reagents. In the full data, about 1,550 (2.6%) got an active call. 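G2 share is only a proxy for re-replication; each gene was hit by three separate siRNAs, and active genes were retested.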 Reagents against one gene are numbered here. Further read-outs or replicates are left out here. No sequences are given here. Not stated in the record: the amount of reagent.

LINC00467 (long independently transcribed non-coding RNA 467) #1
- G2 robust z-score: -0.728
- G2 cells, % of GMNN control: -2.15
- Call: inactive

LINC00467 (long independently transcribed non-coding RNA 467) #2
- G2 robust z-score: -0.273
- G2 cells, % of GMNN control: 1.05
- Call: inactive

LINC00467 (long independently transcribed non-coding RNA 467) #3
- G2 robust z-score: 0.521
- G2 cells, % of GMNN control: 6.64
- Call: inactive

SBF2 (SET binding factor 2) #1
- G2 robust z-score: -0.945
- G2 cells, % of GMNN control: -3.68
- Call: inactive

SBF2 (SET binding factor 2) #2
- G2 robust z-score: -0.409
- G2 cells, % of GMNN control: 0.0871
- Call: inactive

SBF2 (SET binding factor 2) #3
- G2 robust z-score: -0.796
- G2 cells, % of GMNN control: -2.63
- Call: inactive

SPACDR (sperm acrosome developmental regulator) #1
- G2 robust z-score: 7.99
- G2 cells, % of GMNN control: 59.2
- Call: active

SPACDR (sperm acrosome developmental regulator) #2
- G2 robust z-score: -0.536
- G2 cells, % of GMNN control: -0.807
- Call: inactive

SPACDR (sperm acrosome developmental regulator) #3
- G2 robust z-score: 0.713
- G2 cells, % of GMNN control: 7.99
- Call: inactive

ZNF891 (zinc finger protein 891) #1
- G2 robust z-score: 3.59
- G2 cells, % of GMNN control: 28.3
- Call: inactive

ZNF891 (zinc finger protein 891) #2
- G2 robust z-score: -0.229
- G2 cells, % of GMNN control: 1.36
- Call: inactive

ZNF891 (zinc finger protein 891) #3
- G2 robust z-score: -0.456
- G2 cells, % of GMNN control: -0.242
- Call: inactive

PRPSAP1 (phosphoribosyl pyrophosphate synthetase associated protein 1) #1
- G2 robust z-score: -0.86
- G2 cells, % of GMNN control: -3.09
- Call: inactive

PRPSAP1 (phosphoribosyl pyrophosphate synthetase associated protein 1) #2
- G2 robust z-score: -1.02
- G2 cells, % of GMNN control: -4.18
- Call: inactive

PRPSAP1 (phosphoribosyl pyrophosphate synthetase associated protein 1) #3
- G2 robust z-score: -0.535
- G2 cells, % of GMNN control: -0.799
- Call: inactive

UBE2D2 (ubiquitin conjugating enzyme E2 D2) #1
- G2 robust z-score: -0.0558
- G2 cells, % of GMNN control: 2.57
- Call: inactive

UBE2D2 (ubiquitin conjugating enzyme E2 D2) #2
- G2 robust z-score: -0.142
- G2 cells, % of GMNN control: 1.97
- Call: inactive

UBE2D2 (ubiquitin conjugating enzyme E2 D2) #3
- G2 robust z-score: 0.764
- G2 cells, % of GMNN control: 8.35
- Call: inactive

DNAJB11 (DnaJ heat shock protein family (Hsp40) member B11) #1
- G2 robust z-score: -0.0847
- G2 cells, % of GMNN control: 2.37
- Call: inactive

DNAJB11 (DnaJ heat shock protein family (Hsp40) member B11) #2
- G2 robust z-score: 5.74
- G2 cells, % of GMNN control: 43.3
- Call: active

DNAJB11 (DnaJ heat shock protein family (Hsp40) member B11) #3
- G2 robust z-score: -0.396
- G2 cells, % of GMNN control: 0.184
- Call: inactive

SYT10 (synaptotagmin 10) #1
- G2 robust z-score: 3.82
- G2 cells, % of GMNN control: 29.8
- Call: inactive

SYT10 (synaptotagmin 10) #2
- G2 robust z-score: 0.0616
- G2 cells, % of GMNN control: 3.4
- Call: inactive

SYT10 (synaptotagmin 10) #3
- G2 robust z-score: -0.454
- G2 cells, % of GMNN control: -0.229
- Call: inactive

A portion from the list above, for reference:
DNAJB11 (DnaJ heat shock protein family (Hsp40) member B11) #3
- G2 robust z-score: -0.396
- G2 cells, % of GMNN control: 0.184
- Call: inactive

SYT10 (synaptotagmin 10) #1
- G2 robust z-score: 3.82
- G2 cells, % of GMNN control: 29.8
- Call: inactive

SYT10 (synaptotagmin 10) #2
- G2 robust z-score: 0.0616
- G2 cells, % of GMNN control: 3.4
- Call: inactive
